Assay results: the supplement of paper PMC12823440, “Inhibitors supercharge kinase turnover through native proteolytic circuits” (Nature, 2025)
Counter-ions that a name gives are not always drawn. Some of the results follow. Hit calls seldom repeat between salt and free forms of one compound.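 In K562 cells expressing nanoluciferase-fused kinases, luminescence was recorded at 4 h intervals between 2 and 18 h, normalized as percent of control with DMSO at 100% and a positive control at 0%. A significant (2 sigma) signal drop marks a time point as decreased. The authors' rule for a hit is not shown and takes in more than the number of time points.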

Sequences of proteins named here, by UniProt entry; tags and fusion partners are left off. A change or cut given only in a name is not applied to a line headed by its entry.
UniProt Q12851: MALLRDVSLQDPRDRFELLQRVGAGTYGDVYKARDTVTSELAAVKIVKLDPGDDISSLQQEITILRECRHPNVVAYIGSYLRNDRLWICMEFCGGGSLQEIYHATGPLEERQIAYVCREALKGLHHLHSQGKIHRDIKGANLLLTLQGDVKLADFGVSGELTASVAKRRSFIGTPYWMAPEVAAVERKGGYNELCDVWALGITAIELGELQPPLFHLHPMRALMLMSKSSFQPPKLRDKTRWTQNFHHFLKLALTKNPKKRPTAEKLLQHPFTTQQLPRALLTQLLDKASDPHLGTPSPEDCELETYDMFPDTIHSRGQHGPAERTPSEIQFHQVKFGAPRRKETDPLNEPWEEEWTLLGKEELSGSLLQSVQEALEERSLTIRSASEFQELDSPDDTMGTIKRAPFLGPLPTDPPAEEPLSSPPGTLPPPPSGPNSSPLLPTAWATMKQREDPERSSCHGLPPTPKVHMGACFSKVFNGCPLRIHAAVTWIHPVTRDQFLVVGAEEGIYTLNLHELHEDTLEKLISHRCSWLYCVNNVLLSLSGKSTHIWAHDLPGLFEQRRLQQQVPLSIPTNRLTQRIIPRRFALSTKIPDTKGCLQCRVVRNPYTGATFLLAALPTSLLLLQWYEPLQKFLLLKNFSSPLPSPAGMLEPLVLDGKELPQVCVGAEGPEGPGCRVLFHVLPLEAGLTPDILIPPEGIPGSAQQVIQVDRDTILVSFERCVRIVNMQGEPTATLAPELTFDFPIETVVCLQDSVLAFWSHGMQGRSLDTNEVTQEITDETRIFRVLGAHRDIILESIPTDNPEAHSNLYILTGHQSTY

These molecules were tested against MAP2K2 (UniProt P36507) (assay: kinase-Nluc reporter destabilization hit call (1 = scored as downregulated) (binary); higher = compound decreases kinase abundance). Conditions: K562; 2-18 h.

kinase-Nluc reporter destabilization hit call, inactive:
Nc1ncnc2c1ncn2[C@@H]1O[C@H](CO)C[C@H]1O [Cordycepin] (10 µM) 0
CC(C)(NS(=O)(=O)c1ccc2c(Cl)cnc(N=C(N)N)c2c1)C(=O)O (10 µM) 0
COc1cc2ncnc(Nc3cccc(Cl)c3)c2cc1OC (10 µM) 0
CCOc1ccc(C(=O)Nc2ncc([N+](=O)[O-])s2)cc1 (10 µM) 0
CC(C)CN[C@H]1CS(=O)(=O)C[C@@H]1S(=O)(=O)c1ccc(Cl)cc1 (10 µM) 0
CCn1c(=O)c(-c2ccc(-c3cncs3)cc2Cl)cc2cnc(Nc3ccc(N4CCN(C)CC4)cc3)nc21 (2.5 µM) 0
C[C@]1(O)CCC[C@@H]1n1c(=O)c(C(F)F)cc2cnc(NC3CCN(S(C)(=O)=O)CC3)nc21 (10 µM) 0
COc1c(NC(=O)C(=O)c2ccc(OCCN3CCOCC3)c3ccccc23)cc(C(C)(C)C)cc1NS(C)(=O)=O (2.5 µM) 0
COc1cc(S(C)(=O)=O)ccc1Nc1nc2ccc(-c3ccc(NC(=O)[C@H](C)c4ccc(F)cc4)cc3)cn2n1 [Empesertib] (10 µM) 0
Nc1cc(Nc2ccc(S(N)(=O)=O)cc2)ncn1 (10 µM) 0
O=C(O)c1cc(O)ccc1O [2,5-Dihydroxybenzoic acid] (10 µM) 0
OCCNC1CCCc2c1[nH]c1ccc(-c3ccccc3)cc21 (stereo not given) (2.5 µM) 0
CC(C)CC1(O)CCN(C(=O)c2ccc(NS(=O)(=O)c3cccc4nccnc34)cc2)CC1 (10 µM) 0
CNC(=O)c1ccc(-c2cnc3cnc(C(=O)N(C)c4ccc(Cl)cc4)cn23)cc1 (2.5 µM) 0
Cc1cc(Nc2cc(Cl)nc(Oc3ccc([N+](=O)[O-])cc3)n2)n[nH]1 [Autophinib] (2.5 µM) 0
CN1CCN(c2ccc(Nc3ncc4nc(Nc5ccccc5)n([C@@H]5CCN(S(=O)(=O)C6CC6)C5)c4n3)cc2)CC1 (2.5 µM) 0
Cc1c(CN2CCN(S(C)(=O)=O)CC2)sc2c(N3CCOCC3)nc(-c3cnc(N)nc3)nc12 (2.5 µM) 0
O=C(NCCCNc1nc(Nc2cccc(NC(=O)N3CCCC3)c2)ncc1I)c1cccs1 (2.5 µM) 0
O=C(/C=C/c1ccc(O[C@@H]2O[C@H](CO)[C@@H](O)[C@H](O)[C@H]2O[C@@H]2OC[C@](O)(CO)[C@H]2O)cc1)c1ccc(O)cc1O [Isoliquiritin apioside] (10 µM) 0
O=C1NC(=O)/C(=C/c2ccc3c(c2)OC(F)(F)O3)S1 (10 µM) 0
COc1ccc([C@@H]2CC(=O)c3c(O)cc(O)cc3O2)cc1O [Hesperetin] (10 µM) 0
N#Cc1c(-c2ccccc2)cc(-c2cc(Br)ccc2O)[nH]c1=O (10 µM) 0
Cc1c(CN2CCN(C(=O)[C@H](C)O)CC2)sc2c(N3CCOCC3)nc(-c3cnc(N)nc3)nc12 [Apitolisib] (10 µM) 0
NC1(Cc2ccc(Cl)cc2)CCN(c2ncnc3[nH]ccc23)CC1 (10 µM) 0
O=C(/C=C/c1ccc(O)c(O)c1)c1ccc(O[C@@H]2O[C@H](CO)[C@@H](O)[C@H](O)[C@H]2O)c(O)c1O [Marein] (10 µM) 0
CN(CC(=O)N(Cc1ccc(C2CCCCC2)cc1)c1ccc(C(=O)O)cc1)S(=O)(=O)c1c(F)c(F)c(F)c(F)c1F (2.5 µM) 0
CC(C)NC(=O)N1CC[C@H](NC2=Nc3cc(F)ccc3N(CC(F)F)c3ccc(Cl)cc32)C1 (10 µM) 0

These molecules were tested against MAP4K2 (UniProt Q12851) in the same assay as above. Conditions: K562; 2-18 h.

kinase-Nluc reporter destabilization hit call, inactive:
Cn1cc(Nc2nccc(N3C[C@H]4CC[C@@H](C3)N4C(=O)[C@@H]3CC3(F)F)n2)cn1 (10 µM) 0
CC(C)=CC(=O)CCC(=O)N1CCN(Cc2cc3nc(-c4cccc5[nH]ncc45)nc(N4CCOCC4)c3s2)CC1 (10 µM) 0
CN(C)CCN(Cc1ccc(Cl)cc1)c1ccccn1 [Chloropyramine hydrochloride] (10 µM) 0
COc1cc([N+](=O)[O-])ccc1S(=O)(=O)N1C[C@@H](CN2CCN(c3ccccn3)CC2)[C@H](c2cccc(F)c2)C1 (relative stereo) (10 µM) 0
Cc1noc(C)c1-c1ccc(-c2cc(C(N)=O)c(NC(N)=O)s2)c(O[C@H]2CCNC2)c1 (10 µM) 0
CC(C)(C)NC(=O)c1cncn1C1CCN(c2ccc(-c3nnc(C(F)(F)F)o3)cn2)CC1 (10 µM) 0
COc1cccc(-n2c(=O)[nH]c3cc(Cl)n(-c4ccc(-c5cccc(OC)c5O)cc4)c3c2=O)c1 (2.5 µM) 0
O=C(Nc1cccnc1)c1cc(C(=O)c2c(F)cccc2Br)c[nH]1 (10 µM) 0
O=C(Nc1cc(Oc2cc(F)c(NC(=O)C3(C(=O)Nc4ccc(F)cc4)CC3)cc2F)ccn1)C1CC1 [Altiratinib] (10 µM) 0
O=C1NC(=O)C(=Cc2ccc(-c3ccc(F)cc3)o2)S1 (stereo in doubt) (10 µM) 0
O=C(NC(NC(=S)Nc1ccc(F)c([N+](=O)[O-])c1)C(Cl)(Cl)Cl)C(c1ccccc1)c1ccccc1 (stereo not given) (10 µM) 0
Nc1ncnc2c1ncn2[C@@H]1O[C@H](CO)C[C@H]1O [Cordycepin] (10 µM) 0
CC(C)(NS(=O)(=O)c1ccc2c(Cl)cnc(N=C(N)N)c2c1)C(=O)O (10 µM) 0
COc1cc2ncnc(Nc3cccc(Cl)c3)c2cc1OC (10 µM) 0
CCOc1ccc(C(=O)Nc2ncc([N+](=O)[O-])s2)cc1 (10 µM) 0
CC(C)CN[C@H]1CS(=O)(=O)C[C@@H]1S(=O)(=O)c1ccc(Cl)cc1 (10 µM) 0
CCn1c(=O)c(-c2ccc(-c3cncs3)cc2Cl)cc2cnc(Nc3ccc(N4CCN(C)CC4)cc3)nc21 (2.5 µM) 0
C[C@]1(O)CCC[C@@H]1n1c(=O)c(C(F)F)cc2cnc(NC3CCN(S(C)(=O)=O)CC3)nc21 (10 µM) 0
COc1c(NC(=O)C(=O)c2ccc(OCCN3CCOCC3)c3ccccc23)cc(C(C)(C)C)cc1NS(C)(=O)=O (2.5 µM) 0
COc1cc(S(C)(=O)=O)ccc1Nc1nc2ccc(-c3ccc(NC(=O)[C@H](C)c4ccc(F)cc4)cc3)cn2n1 [Empesertib] (10 µM) 0
Nc1cc(Nc2ccc(S(N)(=O)=O)cc2)ncn1 (10 µM) 0
O=C(O)c1cc(O)ccc1O [2,5-Dihydroxybenzoic acid] (10 µM) 0
OCCNC1CCCc2c1[nH]c1ccc(-c3ccccc3)cc21 (stereo not given) (2.5 µM) 0
CC(C)CC1(O)CCN(C(=O)c2ccc(NS(=O)(=O)c3cccc4nccnc34)cc2)CC1 (10 µM) 0
CNC(=O)c1ccc(-c2cnc3cnc(C(=O)N(C)c4ccc(Cl)cc4)cn23)cc1 (2.5 µM) 0
Cc1cc(Nc2cc(Cl)nc(Oc3ccc([N+](=O)[O-])cc3)n2)n[nH]1 [Autophinib] (2.5 µM) 0
CN1CCN(c2ccc(Nc3ncc4nc(Nc5ccccc5)n([C@@H]5CCN(S(=O)(=O)C6CC6)C5)c4n3)cc2)CC1 (2.5 µM) 0
Cc1c(CN2CCN(S(C)(=O)=O)CC2)sc2c(N3CCOCC3)nc(-c3cnc(N)nc3)nc12 (2.5 µM) 0
O=C(NCCCNc1nc(Nc2cccc(NC(=O)N3CCCC3)c2)ncc1I)c1cccs1 (2.5 µM) 0
O=C(/C=C/c1ccc(O[C@@H]2O[C@H](CO)[C@@H](O)[C@H](O)[C@H]2O[C@@H]2OC[C@](O)(CO)[C@H]2O)cc1)c1ccc(O)cc1O [Isoliquiritin apioside] (10 µM) 0
O=C1NC(=O)/C(=C/c2ccc3c(c2)OC(F)(F)O3)S1 (10 µM) 0
COc1ccc([C@@H]2CC(=O)c3c(O)cc(O)cc3O2)cc1O [Hesperetin] (10 µM) 0
N#Cc1c(-c2ccccc2)cc(-c2cc(Br)ccc2O)[nH]c1=O (10 µM) 0
Cc1c(CN2CCN(C(=O)[C@H](C)O)CC2)sc2c(N3CCOCC3)nc(-c3cnc(N)nc3)nc12 [Apitolisib] (10 µM) 0
NC1(Cc2ccc(Cl)cc2)CCN(c2ncnc3[nH]ccc23)CC1 (10 µM) 0
O=C(/C=C/c1ccc(O)c(O)c1)c1ccc(O[C@@H]2O[C@H](CO)[C@@H](O)[C@H](O)[C@H]2O)c(O)c1O [Marein] (10 µM) 0
CN(CC(=O)N(Cc1ccc(C2CCCCC2)cc1)c1ccc(C(=O)O)cc1)S(=O)(=O)c1c(F)c(F)c(F)c(F)c1F (2.5 µM) 0
CC(C)NC(=O)N1CC[C@H](NC2=Nc3cc(F)ccc3N(CC(F)F)c3ccc(Cl)cc32)C1 (10 µM) 0
